Where a SMILES comes first, the peptide text is derived from it. Bridges are numbered along the chain shown (N, C = ends).
Assay: Sedimentation equilibrium analytical ultracentrifugation (monomer-dimer equilibrium)
Assay type: physicochemical
Conditions: for MW in solution (95% confidence limits): 5° C., pH 7, fit assuming a single ideal species; for oligomer state by sedimentation equilibrium analysis: pH 7, 5° C.
Protocol: Sedimentation equilibrium experiments were conducted at 5° C. in a Beckman-Optima XL-I analytical ultracentrifuge fitted with an An-60 Ti rotor. A […] peptide solution at […] in 25 mM K phosphate buffer pH 7 containing 0.1 M KCl was equilibrated for 48 h at speeds of 40 000, 47 500/50 000 and 55 000/60 000 rpm. […] The molecular weights (Table 2) and partial specific volumes (range 0.7417 to 0.7461) of the peptides were calculated from their amino-acid sequences, and the viscosity of the buffer at 5° C. was taken to be […].

Row | Compound | MW in solution (95% confidence limits) | oligomer state by sedimentation equilibrium analysis | further results
1 | CC[C@H](C)[C@@H]1NC(=O)[C@H](CCCCN)NC(=O)[C@H](CCC(N)=O)NC(=O)[C@H](CCC(=O)O)NC(=O)[C@H](CC(C)C)NC(=O)[C@H](C)NC(=O)[C@H](CCCNC(=N)N)NC(=O)[C@H]([C@@H](C)CC)NC(=O)[C@H](CCCCN)NC(=O)[C@H](C)NC(=O)[C@H](CCC(N)=O)NC(=O)[C@H](CCCCN)NC(=O)[C@H](C)NC(=O)[C@H](CCC(N)=O)NC(=O)[C@H](CCCCN)NC(=O)[C@H](CC(C)C)NC(=O)[C@H](CCCNC(=N)N)NC(=O)[C@H](C)NC(=O)[C@H]([C@@H](C)CC)NC(=O)[C@H](CCC(=O)O)NC(=O)[C@H](Cc2ccc(O)cc2)NC(=O)[C@H](CCCCN)NC(=O)[C@H](CC(C)C)NC(=O)[C@H](C)NC(=O)[C@H](CCCNC(=N)N)NC(=O)[C@H]([C@@H](C)CC)NC(=O)[C@H](CCC(=O)O)NC(=O)CNC(=O)CNC(=O)[C@@H](N)CSSC[C@@H](C(=O)O)NC(=O)CNC(=O)CNC(=O)[C@H](CCC(=O)O)NC(=O)[C@H](CC(C)C)NC(=O)[C@H](C)NC(=O)[C@H](C)NC1=O [CSP-3o] (H-CGGEIRALKYEIARLKQAKQAKIRALEQKIAALEGGC-OH; disulfide 1-37; N-terminus and C-terminus assumed) | 3522 (3308, 3731) Da | monomeric | –
2 | CGGEIRALKYEIARLKQ----KKRALEQKIAALEGGC [CSP-1o] | – | monomeric | –
3 | CGGEIRALKYEIARLKQ----KKRALEQKIAALEGGC [CSP-1r] | 6885 (6639, 7127) Da | monomer-dimer equilibrium | –
4 | CGGEIRALKYEIARLKQAAQAKIRALEQKIAALEGGC [CSP-6o] | 3810 (3591, 4023) Da | – | –
5 | CGGEIRALKYEIARLKQAAQAKIRALEQKIAALEGGC [CSP-6r] | – | dimeric | MW in solution (95% confidence limits) (listed as CSP-7a): 7148 (6931, 7361) Da
6 | CGGEIRALKYEIARLKQAAQAKKRALEQKIAALEGGC [CSP-7o] | 3665 (3535, 3791) Da | – | MW in solution (95% confidence limits) (listed as CSP-8o): 3295 (3137, 3449) Da
7 | CGGEIRALKYEIARLKQAAQAKKRALEQKIAALEGGC [CSP-7r] | – | – | MW in solution (95% confidence limits) (listed as CSP-8a): 5481 (5199, 5755) Da
8 | CGGEIRALKYEIARLKQAKQAEIRALKQEIAALKGGC [CSP-4o] | 3811 (3642, 3975) Da | behaved as monomers | –
9 | CGGEIRALKYEIARLKQAKQAEIRALKQEIAALKGGC [CSP-4r] | – | formed helical dimers | MW in solution (95% confidence limits) (listed as CSP-5a): 6949 (6715, 7180) Da
10 | CGGEIRALKYEIARLKQAKQAKIRALEQKIAALEGGC [CSP-3r] | 6652 (6372, 6925) Da | monomer-dimer equilibrium | –
11 | CGGEIRALKYEIARLKQGGGGKKRALEQKIAALEGGC [CSP-2o] | 3260 (3018, 3495) Da | monomeric species in solution | –
12 | CGGEIRALKYEIARLKQGGGGKKRALEQKIAALEGGC [CSP-2r] | – | molecular weight close to that expected for monomer | MW in solution (95% confidence limits) (listed as CSP-4a): 3901 (3708, 4088) Da
13 | CGGKIRALEYKIARLEQAKQAKIRALEQKIAALEGGC [CSP-5o] | 3768 (3563, 3968) Da | behaved as monomers | –
14 | CGGKIRALEYKIARLEQAKQAKIRALEQKIAALEGGC [CSP-5r] | – | formed helical dimers | MW in solution (95% confidence limits) (listed as CSP-6a): 6819 (6336, 7286) Da
